# The other results are listed elsewhere or left out. The data scatter; read single values as rough.
# Amino acid sequences for entries named in this document (tags omitted). A change or cut given only in a name is not applied to a line headed by its entry. Residues count along the entry.
# UniProt Q68EM7, 93-117: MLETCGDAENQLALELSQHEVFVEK
# UniProt Q3SXY8: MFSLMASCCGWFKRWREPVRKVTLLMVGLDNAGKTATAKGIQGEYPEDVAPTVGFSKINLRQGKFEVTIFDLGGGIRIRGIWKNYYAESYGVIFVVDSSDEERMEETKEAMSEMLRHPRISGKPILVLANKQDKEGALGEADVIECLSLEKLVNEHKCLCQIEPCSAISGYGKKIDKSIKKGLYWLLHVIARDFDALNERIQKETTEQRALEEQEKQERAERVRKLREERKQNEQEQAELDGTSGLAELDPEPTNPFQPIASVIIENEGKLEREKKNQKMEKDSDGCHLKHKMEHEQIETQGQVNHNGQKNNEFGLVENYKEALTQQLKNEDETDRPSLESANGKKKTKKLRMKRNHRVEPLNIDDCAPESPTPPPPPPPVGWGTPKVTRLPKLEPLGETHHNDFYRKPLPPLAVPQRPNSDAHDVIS
# UniProt Q9BZZ5, 211-237: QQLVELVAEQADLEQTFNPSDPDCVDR
# UniProt O00192: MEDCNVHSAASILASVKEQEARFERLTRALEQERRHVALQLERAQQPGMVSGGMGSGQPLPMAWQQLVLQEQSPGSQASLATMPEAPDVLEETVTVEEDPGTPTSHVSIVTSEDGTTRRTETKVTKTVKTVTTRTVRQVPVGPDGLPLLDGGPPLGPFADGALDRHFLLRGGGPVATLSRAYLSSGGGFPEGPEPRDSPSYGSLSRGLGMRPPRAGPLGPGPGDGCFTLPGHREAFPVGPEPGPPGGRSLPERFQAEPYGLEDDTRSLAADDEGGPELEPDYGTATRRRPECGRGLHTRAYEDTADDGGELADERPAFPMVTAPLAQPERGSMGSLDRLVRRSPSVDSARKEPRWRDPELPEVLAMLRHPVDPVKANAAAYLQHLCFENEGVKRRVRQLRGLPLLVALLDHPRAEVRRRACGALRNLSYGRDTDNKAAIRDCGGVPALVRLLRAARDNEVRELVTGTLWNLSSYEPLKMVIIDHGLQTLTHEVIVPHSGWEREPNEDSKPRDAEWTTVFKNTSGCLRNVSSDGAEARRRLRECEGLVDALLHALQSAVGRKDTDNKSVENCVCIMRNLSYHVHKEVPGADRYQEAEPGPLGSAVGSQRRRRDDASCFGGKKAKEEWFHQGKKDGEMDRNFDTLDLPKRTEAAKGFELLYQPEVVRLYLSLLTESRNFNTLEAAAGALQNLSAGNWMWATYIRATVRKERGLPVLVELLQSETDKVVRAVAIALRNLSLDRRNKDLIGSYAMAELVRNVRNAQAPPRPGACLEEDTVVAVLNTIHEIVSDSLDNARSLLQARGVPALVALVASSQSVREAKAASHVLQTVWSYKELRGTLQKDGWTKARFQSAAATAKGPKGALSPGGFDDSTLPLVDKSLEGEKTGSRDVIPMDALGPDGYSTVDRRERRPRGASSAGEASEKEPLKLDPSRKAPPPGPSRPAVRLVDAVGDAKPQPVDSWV
# UniProt Q9UPS8, 447-467: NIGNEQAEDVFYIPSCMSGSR
# UniProt Q6NXT1, 114-144: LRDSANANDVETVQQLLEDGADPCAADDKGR
# UniProt P25054, whole entry, looked up: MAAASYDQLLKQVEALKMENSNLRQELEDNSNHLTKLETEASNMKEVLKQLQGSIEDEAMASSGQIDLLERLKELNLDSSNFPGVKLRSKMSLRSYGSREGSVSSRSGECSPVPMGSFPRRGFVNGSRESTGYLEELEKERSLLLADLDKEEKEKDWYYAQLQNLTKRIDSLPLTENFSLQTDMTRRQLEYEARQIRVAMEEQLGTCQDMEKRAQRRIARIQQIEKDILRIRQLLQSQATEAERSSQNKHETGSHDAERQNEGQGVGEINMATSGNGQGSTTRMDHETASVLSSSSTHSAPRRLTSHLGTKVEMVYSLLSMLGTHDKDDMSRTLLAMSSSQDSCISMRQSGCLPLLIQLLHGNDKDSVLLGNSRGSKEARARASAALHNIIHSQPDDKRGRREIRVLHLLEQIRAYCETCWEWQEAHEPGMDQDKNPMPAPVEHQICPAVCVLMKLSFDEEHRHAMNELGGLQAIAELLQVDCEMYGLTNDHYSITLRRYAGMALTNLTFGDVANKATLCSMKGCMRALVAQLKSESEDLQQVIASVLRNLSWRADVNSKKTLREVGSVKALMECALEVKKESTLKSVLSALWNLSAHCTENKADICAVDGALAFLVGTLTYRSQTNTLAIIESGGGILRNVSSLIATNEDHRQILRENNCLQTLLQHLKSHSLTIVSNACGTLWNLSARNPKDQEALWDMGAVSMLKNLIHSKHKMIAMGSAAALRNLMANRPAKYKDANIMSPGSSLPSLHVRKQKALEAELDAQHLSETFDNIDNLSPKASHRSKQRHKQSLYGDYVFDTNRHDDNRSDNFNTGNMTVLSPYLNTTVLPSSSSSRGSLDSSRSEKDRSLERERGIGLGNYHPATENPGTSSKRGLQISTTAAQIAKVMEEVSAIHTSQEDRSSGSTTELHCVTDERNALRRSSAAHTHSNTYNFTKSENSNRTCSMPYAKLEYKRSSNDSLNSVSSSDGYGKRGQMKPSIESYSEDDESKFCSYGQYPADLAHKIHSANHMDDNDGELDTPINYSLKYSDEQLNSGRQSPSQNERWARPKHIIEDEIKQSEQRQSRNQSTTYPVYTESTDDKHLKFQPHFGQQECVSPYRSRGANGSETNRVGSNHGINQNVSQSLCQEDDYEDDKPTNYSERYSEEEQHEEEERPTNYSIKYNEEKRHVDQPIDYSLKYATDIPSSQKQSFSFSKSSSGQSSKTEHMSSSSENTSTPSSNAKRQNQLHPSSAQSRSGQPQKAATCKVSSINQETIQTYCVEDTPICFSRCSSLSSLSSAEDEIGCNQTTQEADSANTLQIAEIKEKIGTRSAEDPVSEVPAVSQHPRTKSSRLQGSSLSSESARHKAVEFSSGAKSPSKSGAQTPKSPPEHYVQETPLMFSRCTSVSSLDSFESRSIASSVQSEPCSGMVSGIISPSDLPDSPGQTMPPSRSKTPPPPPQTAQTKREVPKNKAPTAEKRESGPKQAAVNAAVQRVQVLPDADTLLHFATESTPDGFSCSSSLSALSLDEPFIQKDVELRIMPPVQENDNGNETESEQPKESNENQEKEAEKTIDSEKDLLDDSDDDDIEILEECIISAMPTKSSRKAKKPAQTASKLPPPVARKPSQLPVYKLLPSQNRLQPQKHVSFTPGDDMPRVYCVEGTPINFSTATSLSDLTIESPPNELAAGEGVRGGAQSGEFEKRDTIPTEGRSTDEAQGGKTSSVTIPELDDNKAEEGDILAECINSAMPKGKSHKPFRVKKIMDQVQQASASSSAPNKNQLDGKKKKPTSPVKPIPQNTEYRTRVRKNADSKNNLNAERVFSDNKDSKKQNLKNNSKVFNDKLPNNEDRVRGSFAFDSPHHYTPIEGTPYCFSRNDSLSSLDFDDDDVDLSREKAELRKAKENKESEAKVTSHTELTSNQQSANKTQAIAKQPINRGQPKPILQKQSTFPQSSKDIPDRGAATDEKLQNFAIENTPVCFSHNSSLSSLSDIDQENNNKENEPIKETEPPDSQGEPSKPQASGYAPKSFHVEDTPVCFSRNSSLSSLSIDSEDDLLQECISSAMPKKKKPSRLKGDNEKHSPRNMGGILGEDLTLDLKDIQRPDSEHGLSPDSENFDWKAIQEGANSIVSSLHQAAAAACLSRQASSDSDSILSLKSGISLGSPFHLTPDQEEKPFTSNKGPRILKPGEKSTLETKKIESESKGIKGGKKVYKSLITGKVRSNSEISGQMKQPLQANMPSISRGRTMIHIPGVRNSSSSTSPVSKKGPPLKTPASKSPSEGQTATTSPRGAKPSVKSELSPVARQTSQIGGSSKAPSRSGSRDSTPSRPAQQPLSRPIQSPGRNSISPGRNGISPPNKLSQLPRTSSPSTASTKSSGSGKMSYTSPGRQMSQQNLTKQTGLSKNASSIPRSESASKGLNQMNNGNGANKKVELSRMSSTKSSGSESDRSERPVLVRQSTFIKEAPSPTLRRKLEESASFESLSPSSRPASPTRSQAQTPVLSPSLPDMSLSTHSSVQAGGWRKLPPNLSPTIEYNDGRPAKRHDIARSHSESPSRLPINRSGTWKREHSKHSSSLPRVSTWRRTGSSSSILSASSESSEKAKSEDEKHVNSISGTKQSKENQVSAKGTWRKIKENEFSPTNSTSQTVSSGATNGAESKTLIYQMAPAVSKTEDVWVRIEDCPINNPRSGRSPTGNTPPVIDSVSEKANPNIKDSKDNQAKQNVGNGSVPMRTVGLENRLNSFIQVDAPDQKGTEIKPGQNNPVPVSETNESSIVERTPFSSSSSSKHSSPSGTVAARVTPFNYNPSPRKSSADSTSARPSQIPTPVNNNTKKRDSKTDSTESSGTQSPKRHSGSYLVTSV
# UniProt P39687: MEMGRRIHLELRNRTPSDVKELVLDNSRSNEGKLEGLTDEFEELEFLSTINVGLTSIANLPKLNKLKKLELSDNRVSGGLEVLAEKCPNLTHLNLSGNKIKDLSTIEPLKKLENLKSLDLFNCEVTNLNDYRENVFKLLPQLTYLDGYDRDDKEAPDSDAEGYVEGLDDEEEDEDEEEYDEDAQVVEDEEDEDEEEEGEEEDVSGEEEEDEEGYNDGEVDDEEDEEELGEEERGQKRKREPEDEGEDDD
# UniProt P27540: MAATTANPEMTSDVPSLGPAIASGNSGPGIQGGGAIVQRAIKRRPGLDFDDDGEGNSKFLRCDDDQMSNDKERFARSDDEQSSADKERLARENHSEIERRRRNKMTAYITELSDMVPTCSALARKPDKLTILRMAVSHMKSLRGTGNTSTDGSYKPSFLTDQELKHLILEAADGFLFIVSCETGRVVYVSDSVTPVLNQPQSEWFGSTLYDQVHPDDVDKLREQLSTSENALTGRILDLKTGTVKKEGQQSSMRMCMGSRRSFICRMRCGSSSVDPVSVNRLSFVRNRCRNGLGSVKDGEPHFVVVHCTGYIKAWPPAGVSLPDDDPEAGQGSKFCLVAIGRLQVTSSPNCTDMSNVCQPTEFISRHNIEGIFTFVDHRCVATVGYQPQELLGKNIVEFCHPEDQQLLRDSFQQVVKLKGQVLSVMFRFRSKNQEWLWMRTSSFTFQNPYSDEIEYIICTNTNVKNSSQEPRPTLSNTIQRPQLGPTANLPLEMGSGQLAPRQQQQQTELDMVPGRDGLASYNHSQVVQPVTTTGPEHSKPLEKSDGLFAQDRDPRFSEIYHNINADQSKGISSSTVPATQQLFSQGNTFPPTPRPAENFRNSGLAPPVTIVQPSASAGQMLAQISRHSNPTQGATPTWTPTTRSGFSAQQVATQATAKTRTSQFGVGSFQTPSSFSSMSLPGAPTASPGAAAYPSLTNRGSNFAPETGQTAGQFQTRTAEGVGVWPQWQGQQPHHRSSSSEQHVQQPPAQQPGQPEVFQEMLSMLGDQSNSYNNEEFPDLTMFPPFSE
# UniProt Q8IV38, 384-405: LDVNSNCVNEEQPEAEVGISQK
# UniProt P59780, 42-62: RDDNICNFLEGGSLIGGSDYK
# UniProt Q8N6H7: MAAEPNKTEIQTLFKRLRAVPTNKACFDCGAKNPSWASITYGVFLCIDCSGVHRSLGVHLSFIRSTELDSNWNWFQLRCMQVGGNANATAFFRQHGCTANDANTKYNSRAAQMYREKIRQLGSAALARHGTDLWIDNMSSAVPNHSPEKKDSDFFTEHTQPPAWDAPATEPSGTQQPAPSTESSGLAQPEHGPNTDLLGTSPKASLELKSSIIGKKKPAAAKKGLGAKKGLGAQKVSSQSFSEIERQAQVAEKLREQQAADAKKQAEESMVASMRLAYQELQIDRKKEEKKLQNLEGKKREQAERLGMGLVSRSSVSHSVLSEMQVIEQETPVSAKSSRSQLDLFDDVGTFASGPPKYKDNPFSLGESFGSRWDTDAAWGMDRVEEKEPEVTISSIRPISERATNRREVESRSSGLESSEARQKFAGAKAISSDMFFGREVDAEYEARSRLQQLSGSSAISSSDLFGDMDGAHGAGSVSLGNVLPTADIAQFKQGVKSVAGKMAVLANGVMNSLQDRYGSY
# UniProt P10398: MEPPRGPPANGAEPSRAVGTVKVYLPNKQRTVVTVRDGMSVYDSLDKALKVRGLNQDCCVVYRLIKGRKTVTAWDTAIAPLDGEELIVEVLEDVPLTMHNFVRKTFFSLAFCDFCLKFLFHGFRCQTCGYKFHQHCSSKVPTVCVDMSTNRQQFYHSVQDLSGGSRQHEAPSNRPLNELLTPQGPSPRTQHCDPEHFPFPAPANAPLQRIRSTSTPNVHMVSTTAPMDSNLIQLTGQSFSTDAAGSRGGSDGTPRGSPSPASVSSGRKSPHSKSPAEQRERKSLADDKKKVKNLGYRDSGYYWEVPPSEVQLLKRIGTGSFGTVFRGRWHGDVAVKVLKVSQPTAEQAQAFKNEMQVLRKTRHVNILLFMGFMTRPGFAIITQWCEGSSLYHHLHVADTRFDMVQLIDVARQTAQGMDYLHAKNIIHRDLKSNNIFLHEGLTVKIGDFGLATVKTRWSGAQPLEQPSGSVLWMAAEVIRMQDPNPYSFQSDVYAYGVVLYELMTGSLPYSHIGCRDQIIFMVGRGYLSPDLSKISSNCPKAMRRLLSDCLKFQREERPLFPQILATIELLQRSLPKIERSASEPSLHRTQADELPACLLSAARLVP
# UniProt Q68CP9, 1312-1338: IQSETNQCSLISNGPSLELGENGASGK
# UniProt Q7Z3E5, 354-374: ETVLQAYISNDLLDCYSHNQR
# What was measured:
# [1] = compound: ClCC(=O)N[C@@H]1CCCc2ccccc12; assay: log2 mean competition ratio of IA-DTB cysteine labelling (DMSO/compound) (log2 ratio); higher = stronger cysteine engagement by compound; conditions: treatment time: 4 h, cell line lysate: HEK293T
# Method: (§1)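 IA-DTB competitive cysteine chemoproteomics in HEK293T RIPA lysate. Lysates were treated with compound 29 or 30 at 50 or 200 µM for 4 h, then IA-DTB (500 µM, 1 h), trypsin-digested, NeutrAvidin-enriched and analysed by diaPASEF. Competition ratio = intensity DMSO / intensity compound (n=4 treated, n=64 DMSO); binding: mean log2 CR ≥ 1 and p ≤ 0.05 plus QC filters. Target is the cysteine site.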
# [2] = compound: ClCC(=O)N[C@H]1CCCc2ccccc12; assay: as above; conditions: treatment time: 4 h, cell line lysate: HEK293T
# Method: as §1
Target,log2 mean competition ratio ([1]; 50 µM),log2 mean competition ratio ([1]; 200 µM),log2 mean competition ratio ([2]; 50 µM),log2 mean competition ratio ([2]; 200 µM)
AP1G1 C400,-0.0229,-0.237,-0.167,-0.28
ARHGAP17 C97 (UniProt Q68EM7),-0.327,-0.187,-0.168,-0.277
APBB2 C446 (UniProt Q92870),-0.0555,0.0954,0.334,0.0693
ASMTL C546 (UniProt O95671),0.607,0.338,0.292,0.102
ARL13B C287 (UniProt Q3SXY8),-0.176,-0.348,-0.00678,0.0361
API5 C234 (UniProt Q9BZZ5),-0.462,0.509,0.0146,0.558
ARID1A C1827 (UniProt O14497),-0.0641,0.19,-0.228,0.165
ANXA11 C226 (UniProt P50995),-0.475,0.0156,-0.345,0.0716
ARHGEF6 C25 (UniProt Q15052),-0.318,0.201,-0.553,0.217
AP3D1 C39 (UniProt O14617),0.104,-0.114,-0.633,-0.408
ARFGEF1 C622 (UniProt Q9Y6D6),0.277,-0.067,0.177,-0.171
ANKRD11 C1339 (UniProt Q6UB99),-0.118,-0.288,-0.35,0.149
ARVCF C226 (UniProt O00192),0.124,0.365,-0.476,0.244
ARHGEF2 C342,-0.0756,-0.000918,0.254,0.0865
ANKRD26 C462 (UniProt Q9UPS8),-0.0294,-0.403,0.82,0.177
ANKRD26 C1106 (UniProt Q9UPS8),-0.105,0.0196,-0.315,0.0168
ARHGEF2 C306,-0.171,0.334,0.132,0.353
AP1G1 C353,-0.103,-0.515,0.566,-0.196
ANKLE2 C350 (UniProt Q86XL3),-0.0579,0.124,0.214,0.166
ANKRD54 C137 (UniProt Q6NXT1),-0.293,-0.105,-0.402,-0.284
ARMC8 C3,-0.00222,-0.391,0.122,0.139
APC C2664 (UniProt P25054),0.0728,-0.352,-0.153,-0.159

Target,log2 mean competition ratio ([1]; 50 µM),log2 mean competition ratio ([1]; 200 µM),log2 mean competition ratio ([2]; 50 µM),log2 mean competition ratio ([2]; 200 µM)
ARFGEF1 C1200 (UniProt Q9Y6D6),-0.097,0.323,0.0693,0.0112
ANKRD13A C540 (UniProt Q8IZ07),-0.204,-0.471,0.41,-0.437
ANLN C309 (UniProt Q9NQW6),0.106,-0.0229,-0.113,0.0764
ANP32A C123 (UniProt P39687),0.0645,-0.068,-0.126,0.00535
ARNT C269 (UniProt P27540),-0.179,0.0264,-0.209,-0.0494
ANKMY2 C390 (UniProt Q8IV38),-0.452,-0.15,-0.041,-0.118
ANKRD6 C613,-0.248,-0.0124,-0.618,0.0275
APC C110 (UniProt P25054),-0.025,-0.0468,0.222,-0.119
AP3S2 C47 (UniProt P59780),-0.0238,-0.344,-0.335,-0.186
AP2A2 C491 (UniProt O94973),0.011,-0.119,-0.0715,-0.157
ARFGAP2 C97 (UniProt Q8N6H7),-0.135,0.152,-0.151,0.169
ANKS1A C633 (UniProt Q92625),-0.321,-0.00994,-0.0603,0.235
ARAF C538 (UniProt P10398),0.0346,0.354,0.0218,0.16
AP3M1 C236 (UniProt Q9Y2T2),-0.0836,0.131,-0.493,0.106
ANXA6 C59,-0.235,-0.0496,0.155,0.225
ARID2 C1319 (UniProt Q68CP9),-0.281,0.125,0.612,-0.00421
APC C947 (UniProt P25054),-0.0151,-0.134,0.332,0.177
ARHGEF26 C491,-0.0603,-0.00828,-0.347,0.106
ARMC9 C368 (UniProt Q7Z3E5),0.0377,0.102,0.177,-0.0807
ARHGEF40 C556 (UniProt Q8TER5),-0.176,-0.291,-0.0993,0.0381
ANKLE2 C454 (UniProt Q86XL3),-0.193,-0.031,-0.127,0.195
ANLN C234 (UniProt Q9NQW6),-0.113,0.168,0.146,0.253

# Reformatted as tab-separated lines: part of the list above.
Target	log2 mean competition ratio ([1]; 50 µM)	log2 mean competition ratio ([1]; 200 µM)	log2 mean competition ratio ([2]; 50 µM)	log2 mean competition ratio ([2]; 200 µM)
APC C110 (UniProt P25054)	-0.025	-0.0468	0.222	-0.119
AP3S2 C47 (UniProt P59780)	-0.0238	-0.344	-0.335	-0.186
AP2A2 C491 (UniProt O94973)	0.011	-0.119	-0.0715	-0.157
ARFGAP2 C97 (UniProt Q8N6H7)	-0.135	0.152	-0.151	0.169
ANKS1A C633 (UniProt Q92625)	-0.321	-0.00994	-0.0603	0.235
ARAF C538 (UniProt P10398)	0.0346	0.354	0.0218	0.16
AP3M1 C236 (UniProt Q9Y2T2)	-0.0836	0.131	-0.493	0.106
ANXA6 C59	-0.235	-0.0496	0.155	0.225
ARID2 C1319 (UniProt Q68CP9)	-0.281	0.125	0.612	-0.00421
APC C947 (UniProt P25054)	-0.0151	-0.134	0.332	0.177
ARHGEF26 C491	-0.0603	-0.00828	-0.347	0.106
ARMC9 C368 (UniProt Q7Z3E5)	0.0377	0.102	0.177	-0.0807
ARHGEF40 C556 (UniProt Q8TER5)	-0.176	-0.291	-0.0993	0.0381

# — the supplement of paper PMC11732987, “Enantioselective OTUD7B fragment discovery through chemoproteomics screening and high-throughput optimisation” (Communications Chemistry, 2025)
